Results are given in words; binding and its absence hold for the method and conditions named. In cells and extracts the contact can be indirect. Some results given as binding are weak or reduced against the parent protein; the word gives no strength.

Amino acid sequences for entries named in this document (tags omitted). A change or cut given only in a name is not applied to a line headed by its entry. Chains listed by the source or under a name are the forms on record and can include a tag or linker. Residues count along the entry.
UniProt P0A705: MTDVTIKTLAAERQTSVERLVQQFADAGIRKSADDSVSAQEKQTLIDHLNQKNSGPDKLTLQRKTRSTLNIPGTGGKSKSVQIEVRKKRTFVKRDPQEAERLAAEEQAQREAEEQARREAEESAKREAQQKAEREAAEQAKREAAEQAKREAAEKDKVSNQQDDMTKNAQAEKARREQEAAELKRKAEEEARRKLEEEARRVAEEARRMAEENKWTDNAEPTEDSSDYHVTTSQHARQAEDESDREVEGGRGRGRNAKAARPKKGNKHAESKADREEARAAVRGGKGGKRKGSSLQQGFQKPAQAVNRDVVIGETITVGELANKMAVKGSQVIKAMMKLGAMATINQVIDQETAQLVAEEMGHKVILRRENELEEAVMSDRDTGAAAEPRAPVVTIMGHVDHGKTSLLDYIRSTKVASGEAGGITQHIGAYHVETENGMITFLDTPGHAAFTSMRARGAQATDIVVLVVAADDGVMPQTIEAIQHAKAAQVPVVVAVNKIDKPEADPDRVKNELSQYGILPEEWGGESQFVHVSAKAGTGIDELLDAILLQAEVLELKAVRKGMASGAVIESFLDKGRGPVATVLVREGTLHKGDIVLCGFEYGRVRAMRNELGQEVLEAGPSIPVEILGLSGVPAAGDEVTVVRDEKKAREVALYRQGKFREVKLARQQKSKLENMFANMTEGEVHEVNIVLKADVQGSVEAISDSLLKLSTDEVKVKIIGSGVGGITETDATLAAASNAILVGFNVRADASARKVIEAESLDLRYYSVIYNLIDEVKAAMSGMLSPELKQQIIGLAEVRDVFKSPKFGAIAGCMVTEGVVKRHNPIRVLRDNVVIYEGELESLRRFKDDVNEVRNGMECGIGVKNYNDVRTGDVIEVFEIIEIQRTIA
6His-IF2γ (translation initiation factor IF2, isoform γ, polyhistidine-tagged): residues 165-890 of P0A705

Experiment [1] has as its target 6His-IF2γ (translation initiation factor IF2, isoform γ, polyhistidine-tagged) (E. coli) (UniProt P0A705). Kind of experiment: pull-down.
Experiment [2] addresses 6His-IF2α (translation initiation factor IF2, isoform α, polyhistidine-tagged) (E. coli) (UniProt P0A705). In words: pull-down.

In the case of “NusA-HaloTag (transcription factor NusA with HaloTag fused at the chromosomal locus) (from UniProt P0AFF6 1-495)”, the binding entry in experiment [1] is on record as “no binding”; in experiment [2], “binds”.

Source of the values: doi:10.1101/2024.09.26.615147.
